Results: paper PMC3134442

Amino acid sequences for entries named in this document (tags omitted). A change or cut given only in a name is not applied to a line headed by its entry.
UniProt P05740: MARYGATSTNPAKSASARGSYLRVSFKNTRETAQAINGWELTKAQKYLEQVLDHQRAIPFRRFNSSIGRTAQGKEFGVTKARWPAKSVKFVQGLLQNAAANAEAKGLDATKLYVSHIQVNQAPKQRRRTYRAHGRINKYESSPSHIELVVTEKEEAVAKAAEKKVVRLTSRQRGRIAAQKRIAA
UniProt P14126: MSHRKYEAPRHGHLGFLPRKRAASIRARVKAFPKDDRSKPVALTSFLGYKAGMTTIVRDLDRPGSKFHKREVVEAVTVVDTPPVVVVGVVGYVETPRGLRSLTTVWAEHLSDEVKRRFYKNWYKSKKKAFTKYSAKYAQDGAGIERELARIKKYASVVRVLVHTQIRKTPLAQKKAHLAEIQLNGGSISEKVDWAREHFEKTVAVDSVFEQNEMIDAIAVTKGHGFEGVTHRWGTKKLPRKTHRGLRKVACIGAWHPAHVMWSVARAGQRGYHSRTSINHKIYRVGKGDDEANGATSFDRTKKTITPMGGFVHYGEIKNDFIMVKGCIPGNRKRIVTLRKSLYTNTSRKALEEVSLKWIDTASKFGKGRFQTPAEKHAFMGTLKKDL

Biological target: Rpl17-TAP (S. cerevisiae) (UniProt P05740)
Assay: co-IP; TAP-tagged bait from cycloheximide-treated yeast lysate captured on IgG-coupled magnetic beads, 4°C, 2 h, 50 mM Hepes-KOH pH 7.5, 140 mM KCl, 10 mM MgCl2, NP-40; eluted with TEV protease; eluate immunoblotted (anti-Rpl3, anti-Egd2, anti-TAP)

binding: binds
Substance: ribosomal protein Rpl3 (from UniProt P14126 1-387)

These are yes or no findings as the source states them, for the method shown. Binding seen in cells or lysates may run through a third protein. Binding can be weak; no strength is given.
